According to article PMC10380613:

T1: MOY male-determining protein of Ceratitis capitata (Ceratitis capitata)
T1 sequence: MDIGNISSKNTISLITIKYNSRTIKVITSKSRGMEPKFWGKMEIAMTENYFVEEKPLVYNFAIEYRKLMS


Experiments:
Experiment in all cases: two-hybrid; GAL4 system (Matchmaker, Clontech); baits in pGBT9 (Gal4 BD), preys in pGAD424 (Gal4 AD); S. cerevisiae AH109; HIS3 reporter, growth on SD/-His/-Leu/-Trp with 20 mM 3-AT, 30 °C; triplicate; each protein as bait and as prey
[1] = biological target: T1, MOY male-determining protein of Ceratitis capitata (Ceratitis capitata)
[2] = biological target: Ceratitis capitata Transformer (CcTRA) (Ceratitis capitata)
[3] = biological target: Ceratitis capitata Transformer 2 (CcTRA2) (Ceratitis capitata)

binding [1] | binding [2] | binding [3] | Molecule
no binding | – | – | Ceratitis capitata Transformer 2 (CcTRA2)
no binding | – | – | Ceratitis capitata Transformer (CcTRA)
– | no binding | no binding | MOY male-determining protein of Ceratitis capitata (protein, UniProt A0A5B8HDM7 1-70) MDIGNISSKNTISLITIKYNSRTIKVITSKSRGMEPKFWGKMEIAMTENYFVEEKPLVYNFAIEYRKLMS

These are yes or no findings as the source states them, for the method shown.
